Article PMC11170899
Results are given in words; binding and its absence hold for the method and conditions named. In cells and extracts the contact can be indirect. Some results given as binding are weak or reduced against the parent protein; the word gives no strength.

By UniProt entry, the sequences of proteins in these tests, tags left out.
UniProt Q13309: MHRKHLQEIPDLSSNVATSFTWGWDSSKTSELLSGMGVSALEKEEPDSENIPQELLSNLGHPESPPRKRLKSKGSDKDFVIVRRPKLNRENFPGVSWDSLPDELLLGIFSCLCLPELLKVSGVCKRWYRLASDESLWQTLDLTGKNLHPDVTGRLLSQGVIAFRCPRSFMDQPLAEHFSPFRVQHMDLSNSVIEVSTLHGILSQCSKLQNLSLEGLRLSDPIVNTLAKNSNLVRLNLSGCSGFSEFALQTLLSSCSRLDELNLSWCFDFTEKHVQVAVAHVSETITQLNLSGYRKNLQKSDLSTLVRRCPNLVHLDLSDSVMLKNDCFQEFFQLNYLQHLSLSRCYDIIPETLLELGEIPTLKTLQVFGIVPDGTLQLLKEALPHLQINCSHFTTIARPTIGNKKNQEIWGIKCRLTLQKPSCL

Biological target: E3 ubiquitin ligase SKP2 (human (in MDA-MB-231 and BT549 cells)) (UniProt Q13309)
Test: co-IP; lysate of breast cancer cells (MDA-MB-231 and BT549) incubated with antibody at 4 °C overnight, then beads 2 h at 4 °C; washed 2 times with IP lysate; western blot

binding: binds
B1: Testicular expression 19 (TEX19) (protein, UniProt Q8NA77 1-164)
chain: MCPPVSMRYEEEGMSYLYASWMYQLQHGDQLSICFTCFKAAFLDFKDLLESEDWEEDNWDPELMEHTEAESEQEGSSGMELSWGQSPGQPVQGGSEAWGPGTLAAAPEGLEDAGLDPHFVPTELWPQEAVPLGLGLEDADWTQGLPWRFEELLTCSHWPSFFPS
